Measured values published in publication PMC10139083.
These are yes or no findings as the source states them, for the method shown. For some of these results: In cells and extracts the contact can be indirect. Some binding calls cover weakened binding; strength is not graded here.

Amino acid sequences for entries named in this document (tags omitted).
UniProt P22314: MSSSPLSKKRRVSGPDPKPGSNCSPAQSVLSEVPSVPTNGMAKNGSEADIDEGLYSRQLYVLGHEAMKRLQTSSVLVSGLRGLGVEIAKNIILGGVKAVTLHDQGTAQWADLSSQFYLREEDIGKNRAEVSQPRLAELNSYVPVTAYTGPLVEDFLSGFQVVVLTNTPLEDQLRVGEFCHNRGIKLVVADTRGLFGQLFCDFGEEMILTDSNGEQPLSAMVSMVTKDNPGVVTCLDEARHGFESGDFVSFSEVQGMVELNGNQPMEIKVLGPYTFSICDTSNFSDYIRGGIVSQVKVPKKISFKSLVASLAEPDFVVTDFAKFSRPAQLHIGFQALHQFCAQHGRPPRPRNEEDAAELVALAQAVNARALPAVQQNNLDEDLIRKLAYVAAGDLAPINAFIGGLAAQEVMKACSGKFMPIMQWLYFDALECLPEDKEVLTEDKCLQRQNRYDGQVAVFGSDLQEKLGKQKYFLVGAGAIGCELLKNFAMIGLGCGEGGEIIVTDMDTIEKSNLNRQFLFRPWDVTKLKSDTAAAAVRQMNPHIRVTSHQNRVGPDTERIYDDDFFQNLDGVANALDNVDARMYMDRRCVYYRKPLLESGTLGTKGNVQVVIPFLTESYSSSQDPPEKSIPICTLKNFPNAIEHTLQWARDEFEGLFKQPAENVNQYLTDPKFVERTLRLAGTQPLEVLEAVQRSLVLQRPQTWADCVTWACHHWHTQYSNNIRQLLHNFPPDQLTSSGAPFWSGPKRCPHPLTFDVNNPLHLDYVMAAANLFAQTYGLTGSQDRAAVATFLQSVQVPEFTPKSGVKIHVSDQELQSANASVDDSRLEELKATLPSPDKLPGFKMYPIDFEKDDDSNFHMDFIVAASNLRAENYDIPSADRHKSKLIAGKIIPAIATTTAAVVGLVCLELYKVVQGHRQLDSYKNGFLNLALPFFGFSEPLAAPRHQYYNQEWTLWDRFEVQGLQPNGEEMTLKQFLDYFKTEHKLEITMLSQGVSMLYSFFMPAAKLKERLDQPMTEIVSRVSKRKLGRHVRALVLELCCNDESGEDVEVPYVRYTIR
UniProt P61088: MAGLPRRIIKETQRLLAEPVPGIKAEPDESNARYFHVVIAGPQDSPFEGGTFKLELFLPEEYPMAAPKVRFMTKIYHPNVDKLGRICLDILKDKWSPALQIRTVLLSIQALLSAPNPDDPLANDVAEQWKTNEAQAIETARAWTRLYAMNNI

Legend:
[1] = target: EphB4 (Eph receptor B4), native protein of MSTO211H cells (human (endogenous in MSTO211H)) (UniProt P54760); test: ELISA; native EphB4 captured from cross-linked whole cell extracts of MSTO211H at a non-limiting target/capturing antibody rate; cdc48/p97 detected; cells with or without IGF-II neutralizing antibody, MG132 (200 nM) or ML240 (200 nM)
[2] = target: T1, N-Biotin EphB4 958-987 (synthetic EphB4 C-tail peptide) (human); test: pull-down; PTM-enhanced pull-down: 50 ug N-biotin EphB4 958-987 peptide on streptavidin magnetic beads; 750 ug whole MSTO211H cell extract (cells with or without IGF-II neutralizing antibody), 10 mM Tris pH 7.5, 4 mM ATP, 2 mM MnCl2, 1 ug recombinant ubiquitin, 0.025% NP40; 48 h at 4 C; western …; only the target purified
T1 sequence (peptide, biotin on the N-terminus (Biotin-NH-)): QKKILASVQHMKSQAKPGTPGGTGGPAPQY

Substance | binding [1] | binding [2]
Cdc48/p97 (Valosin-containing protein, VCP), native protein of MSTO211H cells (from UniProt P55072 1-806) (enzyme) | binds | binds
UBA1 (E1 ubiquitin ligase), native protein of MSTO211H cells (from UniProt P22314 1-1058) (enzyme) | – | binds
UBE2N (E2 ubiquitin ligase), native protein of MSTO211H cells (from UniProt P61088 1-152) (enzyme) | – | binds
